Literature values in patent US20220160666A1, “COMPOSITIONS FOR USE IN SURGERY” (BTG INTERNATIONAL LIMITED, priority 2004, published 2022).
At least one compound was matched to its structure with a doubt left.

System: brain field potentials (EEG power spectrum)
Conditions: rats; sedative analgesics; Dimpfel et al, 1986; cited from earlier work

Compound: CCOC(=O)Nc1ccc(NCc2ccc(F)cc2)nc1N [flupertine]
- change of EEG power in the beta range: power increases in the beta range of varying degrees
